Molecules are shown by their SMILES. Structures can show the parent of a compound that is named as a salt. The list shows a part of the results. Hit calls seldom repeat between salt and free forms of one compound.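 Kinases, fused to nanoluciferase, were expressed in K562 cells; luminescence was measured every 4 h from 2 to 18 h as percent of control (DMSO = 100%, positive control = 0%). A time point is decreased if signal falls significantly (2 sigma). Hits were called by the authors by a rule that is not shown; the count of time points alone does not decide it.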

By UniProt entry, the sequences of proteins in these tests, tags left out.
UniProt Q16620, whole entry, looked up: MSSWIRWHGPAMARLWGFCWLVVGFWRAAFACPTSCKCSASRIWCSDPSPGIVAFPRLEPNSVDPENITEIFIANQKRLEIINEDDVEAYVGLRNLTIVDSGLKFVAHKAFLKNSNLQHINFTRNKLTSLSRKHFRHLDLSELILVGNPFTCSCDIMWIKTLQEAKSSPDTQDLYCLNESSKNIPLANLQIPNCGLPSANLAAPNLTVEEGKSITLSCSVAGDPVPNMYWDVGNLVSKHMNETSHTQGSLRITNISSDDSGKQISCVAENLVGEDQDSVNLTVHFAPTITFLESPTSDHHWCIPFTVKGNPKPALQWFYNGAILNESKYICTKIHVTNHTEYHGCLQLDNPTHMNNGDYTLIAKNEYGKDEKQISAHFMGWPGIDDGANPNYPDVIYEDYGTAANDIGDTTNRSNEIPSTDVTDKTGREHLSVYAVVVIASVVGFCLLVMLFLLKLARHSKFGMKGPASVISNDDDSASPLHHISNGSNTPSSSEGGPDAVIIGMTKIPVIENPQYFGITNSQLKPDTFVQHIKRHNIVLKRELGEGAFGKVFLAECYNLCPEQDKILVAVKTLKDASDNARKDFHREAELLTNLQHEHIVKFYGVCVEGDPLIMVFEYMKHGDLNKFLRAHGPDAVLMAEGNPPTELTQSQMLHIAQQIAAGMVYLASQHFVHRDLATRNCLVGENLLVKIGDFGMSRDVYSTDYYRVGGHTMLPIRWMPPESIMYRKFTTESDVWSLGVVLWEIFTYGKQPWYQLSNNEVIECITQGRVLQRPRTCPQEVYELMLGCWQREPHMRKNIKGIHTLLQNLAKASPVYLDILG

The assay addresses NTRK2 (UniProt Q16620). The assay can be described thus: number of time points (of 5) at which kinase-Nluc abundance scored as decreased, DMSO-normalised (count); higher = more persistent destabilization. The following applies: K562; 2-18 h.
`CCc1cc(O)c(F)cc1-c1ccc2c(-c3nc4c([nH]3)CN(C3CCN(C)CC3)CC4)n[nH]c2c1` [JAK-IN-5 (hydrochloride)] (2 µM): the “number of time points” value was determined as 0. As for `Cc1ccc(Nc2cc(-c3cccc(N4C(=O)c5ccccc5C4=O)c3)ncn2)cc1NS(C)(=O)=O` (10 µM), the “number of time points” value worked out at 0. As for `C=C1C(=O)O[C@@H]2C[C@@]3(C)CCC[C@H](C)C3=C[C@H]12` [Alantolactone] (10 µM), the figure is 0; as for `C=C(C)C(=O)Nc1cccc(-c2ncnc3[nH]cc(C(=O)OCC)c23)c1` (10 µM), 0.

As for `CNc1nc(Nc2cnn(C3CCN(C4COC4)CC3F)c2Cl)ncc1C(F)(F)F` (configuration not stated) (10 µM), the “number of time points” value came to 0. With `Cc1cc(Nc2cc(Cl)nc(Oc3ccc([N+](=O)[O-])cc3)n2)n[nH]1` [Autophinib] (2.5 µM), the “number of time points” value turned out to be 0.

For the molecule `CC(C)=CC[C@H](O)C1=CC(=O)c2c(O)ccc(O)c2C1=O` [(-)-Alkannin] (2.5 µM), the “number of time points” value was 0. As for `CNCc1ccccc1-c1csc([C@@H](C)Nc2nc(C)nc3cc(OC)c(OC)cc23)c1` (2.5 µM), the figure is 0; as for `COc1ncc(-c2nc(N3CCOCC3)nc3c(CN4CCC(C(C)(C)O)CC4)cc(F)cc23)cc1NS(C)(=O)=O` [Linperlisib] (10 µM), 0; as for `O=C(Nc1ccc(F)cc1F)[C@H](NC(=S)Nc1cc(C(F)(F)F)cc(C(F)(F)F)c1)c1ccccc1` (2.5 µM), 0.

In the case of `O=C1NC(=O)C(=Cc2ccc(-c3ccc(F)cc3)o2)S1` (stereo in doubt) (10 µM), the “number of time points” value is 0. `CCOc1cc(C(=O)N2CCC(N3CCN(C)CC3)CC2)ccc1Nc1ncc2c(n1)N(C1CCCC1)c1ccccc1C(=O)N2C` (10 µM): the “number of time points” value came out at 0.

Values taken from the supplement of paper PMC12823440, “Inhibitors supercharge kinase turnover through native proteolytic circuits” (Nature, 2025).
